Results are given in words; binding and its absence hold for the method and conditions named. In cells and extracts the contact can be indirect. Some binding calls cover weakened binding; strength is not graded here. Sequences can lack the tags named with a protein.

Our source for the binding values is publication PMC4539528.

Assay in all cases: pull-down; 2-5 ug purified GST-N-cadherin fusion protein incubated with about 500 ug lysate of transfected HEK293T cells in RIPA buffer at 4°C overnight; captured on glutathione-Sepharose 4B beads; immunoblot; only the target purified
Assay [1] deals with GST-N-cadherin cytoplasmic domain fusion protein (GST-Ncad-CT) (UniProt P15116).
Another assay addresses T1, GST-Ncad751-794 (UniProt P15116).
T1 sequence: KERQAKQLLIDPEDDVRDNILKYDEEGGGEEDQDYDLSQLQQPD

The target in another assay is T2, GST-Ncad751-844 (UniProt P15116).
T2 sequence: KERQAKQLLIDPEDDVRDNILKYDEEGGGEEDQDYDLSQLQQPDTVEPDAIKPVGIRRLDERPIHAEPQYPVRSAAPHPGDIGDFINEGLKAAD

The target of another assay is GST-Ncad751-906 (UniProt P15116).

B1: HA-Myo10^FERM (domain or fragment, UniProt F8VQB6 1704-2048)
chain: MTSTVYCHGGGSCKITINSHTTAGEVVEKLIRGLAMEDSRNMFALFEYNGQVDKAIESRTIVADVLAKFEKLAATSEAGDAPWKFYFKLYCFLDTDSMPKDSVEFAFMFEQAHEAVIHGHHPAPEESLQVLAALRLQYLQGDYTPHTSIPPLEEVYSVQRLRARISQSTKTFTPYERLEKRRTSFLEGTLRRSFRTGSVVRQKAEEEQMLDMWIKEEVCSARTSIIDKWKKLQGMNQEQAMAKYMALIKEWPGYGSTLFDVECKEGGFPQELWLGVSADAVSVYKRGEGKPLEVFQYEHILSFGAPLANTYKIVVDERELLFETSEVVDVAKLMKAYISMIVKKR
For the molecule B1, the binding entry is recorded as “binds” in assay [1], “no binding” with GST-Ncad751-794, “no binding” in the assay with GST-Ncad751-844 and “binds” with GST-Ncad751-906.
